3 substances from publication PMC11867010 can be followed below.

Protein sequences, listed by entry. Tags and fused reporters are not part of them. Lines headed by an entry give the natural chain unless they say otherwise; changes in a name come on top. Chains listed by the source or under a name are the forms on record and can include a tag or linker.
UniProt P97879: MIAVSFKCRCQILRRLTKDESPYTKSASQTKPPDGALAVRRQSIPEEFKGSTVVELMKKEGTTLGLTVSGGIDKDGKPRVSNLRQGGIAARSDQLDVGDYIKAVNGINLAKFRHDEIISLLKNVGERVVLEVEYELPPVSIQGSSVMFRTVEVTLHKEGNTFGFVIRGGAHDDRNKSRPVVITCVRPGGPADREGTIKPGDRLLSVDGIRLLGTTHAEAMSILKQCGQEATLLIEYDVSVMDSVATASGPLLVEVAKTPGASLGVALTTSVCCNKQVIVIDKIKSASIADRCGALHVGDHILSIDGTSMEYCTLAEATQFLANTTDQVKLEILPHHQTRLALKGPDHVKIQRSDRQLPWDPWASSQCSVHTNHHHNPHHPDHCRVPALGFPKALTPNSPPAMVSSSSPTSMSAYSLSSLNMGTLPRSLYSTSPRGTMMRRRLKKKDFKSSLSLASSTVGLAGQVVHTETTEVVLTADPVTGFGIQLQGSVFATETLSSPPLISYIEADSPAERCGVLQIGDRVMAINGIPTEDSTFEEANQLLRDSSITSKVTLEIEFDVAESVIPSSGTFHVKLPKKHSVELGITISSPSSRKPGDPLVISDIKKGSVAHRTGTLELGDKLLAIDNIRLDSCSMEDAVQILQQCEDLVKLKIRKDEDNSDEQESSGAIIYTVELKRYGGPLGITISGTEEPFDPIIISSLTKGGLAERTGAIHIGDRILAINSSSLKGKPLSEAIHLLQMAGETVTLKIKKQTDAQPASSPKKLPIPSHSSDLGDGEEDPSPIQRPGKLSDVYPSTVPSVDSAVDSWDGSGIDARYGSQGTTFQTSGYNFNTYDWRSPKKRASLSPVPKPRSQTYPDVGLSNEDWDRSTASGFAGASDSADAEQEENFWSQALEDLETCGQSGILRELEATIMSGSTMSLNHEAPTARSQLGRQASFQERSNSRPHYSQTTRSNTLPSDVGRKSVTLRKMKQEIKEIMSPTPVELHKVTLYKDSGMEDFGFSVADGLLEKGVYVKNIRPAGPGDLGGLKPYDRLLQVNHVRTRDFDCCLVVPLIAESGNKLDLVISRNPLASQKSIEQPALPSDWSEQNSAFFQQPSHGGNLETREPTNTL
GluA3 (AMPA receptor subunit GluA3), wild type, full-length cDNA in pRK5-Dest (P19492-2, form named): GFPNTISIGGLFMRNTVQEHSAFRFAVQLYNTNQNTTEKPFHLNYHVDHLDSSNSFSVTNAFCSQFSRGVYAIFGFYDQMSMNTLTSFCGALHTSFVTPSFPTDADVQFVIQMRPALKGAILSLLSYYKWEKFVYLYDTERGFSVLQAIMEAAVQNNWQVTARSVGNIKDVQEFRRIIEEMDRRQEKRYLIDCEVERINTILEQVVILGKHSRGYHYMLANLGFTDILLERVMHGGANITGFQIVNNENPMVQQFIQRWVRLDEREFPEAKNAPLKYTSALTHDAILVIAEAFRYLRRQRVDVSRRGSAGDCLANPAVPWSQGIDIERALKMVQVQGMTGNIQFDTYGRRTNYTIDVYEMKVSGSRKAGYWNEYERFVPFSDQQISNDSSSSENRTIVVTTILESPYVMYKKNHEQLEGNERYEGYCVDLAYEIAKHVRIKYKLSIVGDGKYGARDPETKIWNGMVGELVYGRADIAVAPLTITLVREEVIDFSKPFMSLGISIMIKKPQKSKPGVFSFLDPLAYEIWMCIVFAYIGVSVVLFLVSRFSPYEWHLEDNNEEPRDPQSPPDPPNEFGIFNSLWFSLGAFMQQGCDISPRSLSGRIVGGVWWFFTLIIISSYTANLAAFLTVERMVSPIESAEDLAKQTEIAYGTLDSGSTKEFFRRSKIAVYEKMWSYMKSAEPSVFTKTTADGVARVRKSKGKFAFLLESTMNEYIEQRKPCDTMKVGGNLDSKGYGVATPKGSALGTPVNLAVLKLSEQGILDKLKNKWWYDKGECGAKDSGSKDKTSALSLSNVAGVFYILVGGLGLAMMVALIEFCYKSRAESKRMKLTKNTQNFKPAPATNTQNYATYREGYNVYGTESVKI
GluA3_(K887A), full-length cDNA in pRK5-Dest (P19492-2, form named): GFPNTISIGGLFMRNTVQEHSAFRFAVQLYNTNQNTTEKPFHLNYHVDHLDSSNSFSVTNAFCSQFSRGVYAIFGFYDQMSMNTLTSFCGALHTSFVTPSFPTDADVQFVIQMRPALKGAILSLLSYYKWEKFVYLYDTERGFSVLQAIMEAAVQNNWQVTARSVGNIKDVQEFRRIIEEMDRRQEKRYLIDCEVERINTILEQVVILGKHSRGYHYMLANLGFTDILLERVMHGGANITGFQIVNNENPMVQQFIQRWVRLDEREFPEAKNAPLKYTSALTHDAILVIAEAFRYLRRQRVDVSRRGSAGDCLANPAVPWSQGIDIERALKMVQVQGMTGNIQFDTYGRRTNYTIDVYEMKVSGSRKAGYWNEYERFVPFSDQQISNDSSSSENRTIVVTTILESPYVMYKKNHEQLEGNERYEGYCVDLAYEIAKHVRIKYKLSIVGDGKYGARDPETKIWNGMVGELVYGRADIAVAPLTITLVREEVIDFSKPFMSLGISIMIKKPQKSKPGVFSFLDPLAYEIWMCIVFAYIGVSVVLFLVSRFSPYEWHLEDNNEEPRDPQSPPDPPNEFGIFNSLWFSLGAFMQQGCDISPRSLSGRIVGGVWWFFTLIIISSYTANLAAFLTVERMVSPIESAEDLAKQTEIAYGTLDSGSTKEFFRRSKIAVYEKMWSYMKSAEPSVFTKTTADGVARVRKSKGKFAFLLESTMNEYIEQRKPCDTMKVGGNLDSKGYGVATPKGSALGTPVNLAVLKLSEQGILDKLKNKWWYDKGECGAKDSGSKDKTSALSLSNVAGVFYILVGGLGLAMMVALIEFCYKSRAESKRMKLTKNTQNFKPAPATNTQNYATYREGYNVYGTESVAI
GluA3_(S885A), full-length cDNA in pRK5-Dest (P19492-2, form named): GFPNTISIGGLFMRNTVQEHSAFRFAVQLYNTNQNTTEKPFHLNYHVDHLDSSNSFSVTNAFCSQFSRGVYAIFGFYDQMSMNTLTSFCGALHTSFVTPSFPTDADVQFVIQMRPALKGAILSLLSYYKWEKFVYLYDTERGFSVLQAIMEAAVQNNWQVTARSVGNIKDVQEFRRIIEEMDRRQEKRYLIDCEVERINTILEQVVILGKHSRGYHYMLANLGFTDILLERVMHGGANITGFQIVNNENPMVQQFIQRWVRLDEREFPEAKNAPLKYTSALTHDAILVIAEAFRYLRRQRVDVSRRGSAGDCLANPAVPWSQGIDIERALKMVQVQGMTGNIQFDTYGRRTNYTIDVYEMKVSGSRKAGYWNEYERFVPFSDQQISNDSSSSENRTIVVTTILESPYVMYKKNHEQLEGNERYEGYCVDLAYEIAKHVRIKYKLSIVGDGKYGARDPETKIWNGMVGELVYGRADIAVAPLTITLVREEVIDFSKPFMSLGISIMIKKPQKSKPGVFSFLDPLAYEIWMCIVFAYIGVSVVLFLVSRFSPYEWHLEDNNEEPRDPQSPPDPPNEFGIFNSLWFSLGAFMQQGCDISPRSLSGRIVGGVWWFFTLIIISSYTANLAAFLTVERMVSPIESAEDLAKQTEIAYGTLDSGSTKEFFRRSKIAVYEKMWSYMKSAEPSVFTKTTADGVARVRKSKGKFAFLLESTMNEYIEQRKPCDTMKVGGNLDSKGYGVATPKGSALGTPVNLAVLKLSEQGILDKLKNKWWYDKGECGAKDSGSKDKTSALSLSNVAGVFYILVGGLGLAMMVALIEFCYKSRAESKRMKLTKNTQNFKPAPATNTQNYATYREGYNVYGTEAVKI

No constants are given. Whether binding was seen depends on the method and setting. Binding seen in cells or lysates may run through a third protein. Some results given as binding are weak or reduced against the parent protein; the word gives no strength.

This experiment deals with glutamate receptor-interacting protein (GRIP), V5-tagged (UniProt P97879). Briefly: co-IP; HEK cells co-transfected with Grip-V5 and a GluA3 variant; lysed after ~48 h in 25 mM HEPES/NaOH, 150 mM NaCl, pH 7.4, 2% Triton X-100; GRIP precipitated with anti-Grip (ABN27) and protein A/G agarose at 4°C, washed with 1% Triton X-100 buffer; blots with anti-GluA2/3 and anti-V5.
For the substance “GluA3 (AMPA receptor subunit GluA3), wild type, full-length cDNA in pRK5-Dest (from UniProt P19492-2 23-888)”, the binding entry was “binds”.

As for “GluA3_(K887A), full-length cDNA in pRK5-Dest (from UniProt P19492-2 23-888) (receptor)”, the binding entry is listed as “binds”. The result for “GluA3_(S885A), full-length cDNA in pRK5-Dest (from UniProt P19492-2 23-888) (receptor)” reads “no binding”.
